Reference: PubChem BioAssay AID1671190 (National Center for Advancing Translational Sciences (NCATS), 2021)
The campaign covered roughly 580,000 compounds. About 6,100 (1.1%) were called active. The shares of active, inactive and inconclusive entries below differ from those in the screen. Calls come from the whole dose curve; as a rule, active = well fitted inhibition curve with a large enough effect; inconclusive = small, poorly fitted or top-dose-only effect, or another doubt; inactive = no such curve, though single readings can be large or run the other way. Potencies of inconclusive entries are doubtful fits and often do not repeat.

The chains behind the UniProt entries cited, without tags or fusion partners. Where a name states a change or a piece, a line headed by the entry shows the natural chain unless it says otherwise.
UniProt P18054: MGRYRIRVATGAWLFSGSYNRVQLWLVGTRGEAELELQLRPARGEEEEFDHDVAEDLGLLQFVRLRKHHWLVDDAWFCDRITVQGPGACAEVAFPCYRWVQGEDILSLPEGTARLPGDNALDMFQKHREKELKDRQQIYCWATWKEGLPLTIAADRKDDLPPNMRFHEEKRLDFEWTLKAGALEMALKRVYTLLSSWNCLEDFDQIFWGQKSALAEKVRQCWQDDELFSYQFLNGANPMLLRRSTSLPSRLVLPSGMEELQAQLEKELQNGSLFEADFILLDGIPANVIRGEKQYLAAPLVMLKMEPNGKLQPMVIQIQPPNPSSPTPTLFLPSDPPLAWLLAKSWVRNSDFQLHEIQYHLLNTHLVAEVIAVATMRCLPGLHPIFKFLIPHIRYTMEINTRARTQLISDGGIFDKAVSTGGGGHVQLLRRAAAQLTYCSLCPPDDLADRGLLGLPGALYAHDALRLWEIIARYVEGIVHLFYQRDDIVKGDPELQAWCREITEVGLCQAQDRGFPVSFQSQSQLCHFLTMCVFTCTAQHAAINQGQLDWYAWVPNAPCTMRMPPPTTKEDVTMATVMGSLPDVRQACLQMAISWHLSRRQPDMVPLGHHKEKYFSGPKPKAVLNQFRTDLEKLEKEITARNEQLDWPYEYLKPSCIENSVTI

target: Polyunsaturated fatty acid lipoxygenase ALOX12 (Homo sapiens) (UniProt P18054); assay: Primary qHTS assay for inhibitors of human arachidonate 12S-lipoxygenase (ALOX12): Round 2; details: purified 12hLO, xylenol orange hydroperoxide absorbance; activity change, negative = inhibition: at 108 µM (top of the series) unless noted
In short: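 Purified human 12hLO at 150 nM in 25 mM Hepes, 0.01% Triton X-100, pH 7.0, preincubated 15 min at room temperature with compound. Reaction started with 40 uM arachidonic acid, 30 min at room temperature. Hydroperoxide measured by Fe-xylenol orange, 573/405 nm absorbance ratio.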
% is set by controls: 0 for no effect and ±100 for the full control effect; potency is the fitted concentration of half-maximal effect.

| Compound | activity change, negative = inhibition | Potency |
| --- | --- | --- |
| Cc1cc(Cl)c2oc(C(=O)N(C)C3CCOC3)c(C)c2c1 (stereo not drawn) | inactive: 16.1% | – |
| Cc1ccc(-n2c(N)c(C(N)=O)sc2=S)cc1 | – | inconclusive: 3.55 µM [inhibitor, full curve, poor fit] |
| CN(C)/C=N/c1nc2nccc(-c3ccccn3)n2n1 | – | inconclusive: 31.6 µM [inhibitor, single point] |
| CCOC(=O)[C@]12CCC=C1N(Cc1ccc3c(c1)OCO3)C(=O)[C@H](CC(=O)NCCC(C)C)C2 | – | inconclusive: 50.1 µM [inhibitor, partial curve, poor fit] |
| O=C(Oc1ccccc1)N1CCC2(CC1)CCN(c1ccccn1)CC2 | – | inconclusive: 35.5 µM [inhibitor, single point] |
| COc1cccc(-c2n[nH]c3c2CC(=O)N(CC2CCOCC2)C3)c1 | – | inconclusive: 12.6 µM [inhibitor, full curve, poor fit] |
| CCCCN(C(=O)c1cccc(-n2cccc2)c1)c1c(N)n(CCCC)c(=O)[nH]c1=O | – | inconclusive: 35.5 µM [inhibitor, partial curve] |
| Cn1c(=O)c2c(-c3ccc(Cl)cc3)n(CCc3ccccc3)cc2n(C)c1=O | – | inconclusive: 50.1 µM [inhibitor, partial curve, poor fit] |
| O=C(Nc1ccc(-c2csc(Nc3ccc(Cl)cc3)n2)cc1)c1cccc(C(F)(F)F)c1 | – | inconclusive: 50.1 µM [inhibitor, partial curve, poor fit] |
| CC(C)CNC(=O)NCCn1c(-c2ccccc2)nc2ccccc21 | – | inconclusive: 112 µM [inhibitor, partial curve, poor fit] |
| CCOC(=O)C1=C(C)Nc2nc(SCc3ccccc3Cl)nn2C1c1cccs1 (stereo not drawn) | – | inconclusive: 126 µM [inhibitor, single point] |
| Cc1ccc(C(=O)CCC(=O)OCC(=O)Nc2nnc(-c3ccccc3)o2)cc1 | – | inconclusive: 44.7 µM [inhibitor, partial curve, poor fit] |
| O=C(NC1CCCCNC1=O)c1ccco1 (stereo not drawn) | – | inconclusive: 0.355 µM [inhibitor, full curve, poor fit] |
| Cc1oc(-c2ccccc2)nc1CC(=O)N1CCC(C(N)=O)CC1 | inactive: -12.3% | – |
| Cc1ccc(C)c(CN2CCN(c3nc4c(c(=O)[nH]c(=O)n4C)n3CCc3ccccc3)CC2)c1 | – | inconclusive: 44.7 µM [inhibitor, partial curve, poor fit] |
| CN1CCN(C(c2ccc(F)cc2)c2nnnn2Cc2cccs2)CC1 (stereo not drawn) | – | inconclusive: 28.2 µM [inhibitor, partial curve] |
| Cc1oc2cc(OCC(=O)Nc3ccc(N4CCOCC4)cc3)ccc2c(=O)c1-c1ccccc1 | – | inconclusive: 141 µM [inhibitor, single point] |
| Cc1ccc(C(=O)C(C)OC(=O)c2cccc(S(=O)(=O)N(C)C)c2)cc1 (stereo not drawn) | inactive: 30.9% | – |
| O=C1CNC(=S)N1CCc1ccc(O)c(O)c1 | – | inconclusive: 2.24 µM [inhibitor, full curve, poor fit] |
| COc1cccc(N(CC(=O)N2CCN(c3ccccc3OC)CC2)S(C)(=O)=O)c1 | – | inconclusive: 0.708 µM [inhibitor, full curve, poor fit] |
| O=C1S/C(=C\c2ccc(Cl)cc2)C(=O)N1CCn1cnnn1 | inactive: -7.83% | – |

| Compound | activity change, negative = inhibition | Potency |
| --- | --- | --- |
| COc1ccc(N2CCN(Cc3nc4c(c(=O)[nH]c(=O)n4C)n3Cc3ccccc3F)CC2)cc1 | – | inconclusive: 44.7 µM [inhibitor, partial curve, poor fit] |
| CC(C)CNC(=S)N(CCN(C)C)Cc1cc2cc3c(cc2[nH]c1=O)OCO3 | inactive: 0.384% | – |
| CCC(NC(=O)C(C)c1ccc(-c2ccccc2)c(F)c1)C(=O)O (stereo not drawn) | – | inconclusive: 158 µM [inhibitor, partial curve, poor fit] |
| O=C(NCc1ccnc(N2CCCC2)c1)c1ccc(Cl)c(S(=O)(=O)N2CCCCCC2)c1 | inactive: 19.7% | – |
| CC(=O)c1ccc(NC(=O)Cn2c(N3CCc4ccccc4C3)nc(C)cc2=O)cc1 | – | inconclusive: 22.4 µM [inhibitor, full curve] |
| N#Cc1ccc(Cn2cnc3ccccc3c2=O)c(F)c1 | inactive: -15.4% | – |
| c1ccc(CN2CCC(Nc3nc(-c4cccnc4)nc4ccccc34)CC2)cc1 | – | inconclusive: 50.1 µM [inhibitor, partial curve, poor fit] |
| CCC(=O)Nc1cccc(-c2ccc(N3CCCCC3)nn2)c1 | inactive: 19.4% | – |
| COc1cccc([C@@H]2CC=C(C(=O)O)CN2S(=O)(=O)c2ccc(C)cc2)c1 | – | inconclusive: 89.1 µM [inhibitor, partial curve, poor fit] |
| COc1cc(/C=C2/CCc3ccccc3C2=O)cc(OC)c1OC | inactive: -20.8% | – |
| Cn1c(NC(=O)c2ccco2)c(-c2cccc(Cl)c2)c(=O)c2ccccc21 | inactive: 2.86% | – |
| COc1ccc(CCNC(=O)CCc2c(C)nc3cc(-c4cccc(F)c4)nn3c2C)cc1OC | inactive: 0% | – |
| CCSc1oc(-c2ccco2)nc1S(=O)(=O)c1ccc(C)cc1 | – | inconclusive: 100 µM [inhibitor, single point] |
| CCCN(CCC)Cc1cc(=O)oc2cc(C)ccc12 | – | inconclusive: 50.1 µM [inhibitor, partial curve, poor fit] |
| Cc1c(Cl)cccc1Nc1nc(N)c(C(=O)c2ccccc2F)s1 | – | inconclusive: 35.5 µM [inhibitor, partial curve, poor fit] |
| COc1ccc(/C=C/C(=O)Nc2ccncc2)cc1OC | – | inconclusive: 100 µM [inhibitor, partial curve, poor fit] |
| COc1cc(C#Cc2c(C=O)n(C)c3ccccc23)cc(OC)c1 | – | inconclusive: 79.4 µM [inhibitor, single point] |
| Cc1cccc(NC(=O)c2ccc(S(=O)(=O)N3CCN(C)CC3)cc2)c1C | – | inconclusive: 35.5 µM [inhibitor, partial curve, poor fit] |
| COc1ccc(C(=O)N2CCC(c3noc4ccccc34)CC2)cc1OC | – | inconclusive: 141 µM [inhibitor, single point] |
| CCCCCCOc1ccc(C(=O)/C=C/C(=O)O)cc1 | – | inconclusive: 56.2 µM [inhibitor, partial curve, poor fit] |
| Cc1ccc(S(=O)(=O)Nc2ccc3c(c2)C(=O)N([C@H](C)CO)C[C@H](C)[C@@H](CN(C)C(=O)Nc2ccc(C(F)(F)F)cc2)O3)cc1 | – | inconclusive: 141 µM [inhibitor, partial curve, poor fit] |

3 entries picked at random from the list so far, as already listed:

| Compound | activity change, negative = inhibition | Potency |
| --- | --- | --- |
| COc1ccc(CCNC(=O)CCc2c(C)nc3cc(-c4cccc(F)c4)nn3c2C)cc1OC | inactive: 0% | – |
| Cc1ccc(S(=O)(=O)Nc2ccc3c(c2)C(=O)N([C@H](C)CO)C[C@H](C)[C@@H](CN(C)C(=O)Nc2ccc(C(F)(F)F)cc2)O3)cc1 | – | inconclusive: 141 µM [inhibitor, partial curve, poor fit] |
| Cc1cccc(NC(=O)c2ccc(S(=O)(=O)N3CCN(C)CC3)cc2)c1C | – | inconclusive: 35.5 µM [inhibitor, partial curve, poor fit] |

Later entries

| Compound | activity change, negative = inhibition | Potency |
| --- | --- | --- |
| CCOC(=O)c1sc2nc(C)cc(C)c2c1N | inactive: -14.7% | – |
| COc1cc(C)ccc1OCCCCN1CC(C)OC(C)C1 (stereo not drawn) | – | inconclusive: 0.562 µM [inhibitor, full curve, poor fit] |
| NCCc1c(C(=O)O)[nH]c2ccc([N+](=O)[O-])cc12 | – | inconclusive: 2.82 µM [inhibitor, full curve, poor fit] |
| COCCn1c(C)cc(C(=O)COC(=O)c2ccc(S(=O)(=O)N(C)C)cc2)c1C | – | inconclusive: 126 µM [inhibitor, single point] |
| COc1ccc(-n2ncc3c(NCc4ccccn4)ncnc32)cc1 | – | inconclusive: 2.82 µM [inhibitor, full curve, poor fit] |
| O=C1C(Cl)=C(Nc2ccc(O)cc2)C(=O)c2ccccc21 | inactive: 0.0214% | – |
| CCOc1ccc(-c2cc(=O)c3ccccc3o2)cc1 | – | inconclusive: 56.2 µM [inhibitor, partial curve, poor fit] |
| COc1ccnc(CS(=O)c2nc3ccc(OC(F)F)cc3[nH]2)c1OC (stereo not drawn) | – | inconclusive: 4.47 µM [inhibitor, full curve, poor fit] |
| CNC(=O)N1CCC(C2CCN(C(=O)C3CCCC3)C2)CC1 (stereo not drawn) | inactive: 29.6% | – |
| COC1C(=O)N(C2CCN(C(=O)NCc3ccc(C)cc3)CC2)C12CCOCC2 (stereo not drawn) | inactive: 30.9% | – |
| Cc1ccc(-c2cnc(CCC(=O)N(CCC#N)CCC#N)o2)cc1 | inactive: 15.4% | – |
| CCc1cccc(NC(=S)Nc2ccc(CN3CCOCC3)cc2)c1 | – | inconclusive: 79.4 µM [inhibitor, partial curve, poor fit] |
| O=C(Nc1ccc(N2CCCC2)cc1)c1ccc([N+](=O)[O-])cc1Cl | – | inconclusive: 44.7 µM [inhibitor, partial curve, poor fit] |
| O=C1NCCCCCCN(C(=O)c2ccco2)[C@H]2C[C@H](C(=O)N3CCc4ccccc4C3)C[C@@H]12 | inactive: 24.8% | – |
| CCCNc1nc2ccccc2nc1C(C#N)S(=O)(=O)c1ccc(Cl)cc1 (stereo not drawn) | – | inconclusive: 44.7 µM [inhibitor, partial curve, poor fit] |
| CCC(C)c1ccc(-c2csc(NC(=O)Cn3c(=O)c4c(ncn4C)n(C)c3=O)n2)cc1 (stereo not drawn) | – | inconclusive: 89.1 µM [inhibitor, single point] |
| O=C(O)C(c1c[nH]c2cc(F)ccc12)N1CCN(C2=Nc3ccccc3Oc3ccccc32)CC1 (stereo not drawn) | – | inconclusive: 50.1 µM [inhibitor, partial curve, poor fit] |
| Cc1cc(-c2nn(-c3ccccc3F)cc2CN2CCCC(CO)C2)c(C)s1 (stereo not drawn) | – | inconclusive: 89.1 µM [inhibitor, partial curve, poor fit] |
| C=CCOC(=O)Nc1nc2c(s1)C[C@@H]1[C@](C)(CO)[C@H](O)CC[C@@]1(C)[C@@H]2CC(=O)N(CC)CC | – | inconclusive: 89.1 µM [inhibitor, partial curve, poor fit] |
| Cc1ccc(-c2csc(NC(=O)C34CC5CC(CC(C5)C3)C4)n2)cc1 | – | inconclusive: 89.1 µM [inhibitor, partial curve, poor fit] |
| COc1ccc2oc(/C=C/N(C)C)c(C(=O)c3ccc(Cl)cc3)c2c1 | – | active: 7.08 µM |
